Source: doi:10.1101/2023.12.07.570498
Results are given in words; binding and its absence hold for the method and conditions named. Some results given as binding are weak or reduced against the parent protein; the word gives no strength. Where a sequence is shown, tags or fusion partners need not be part of it.

Target: T1, ScVps53 (yeast two-hybrid fusion) (Saccharomyces cerevisiae) (UniProt P47061)
T1 sequence: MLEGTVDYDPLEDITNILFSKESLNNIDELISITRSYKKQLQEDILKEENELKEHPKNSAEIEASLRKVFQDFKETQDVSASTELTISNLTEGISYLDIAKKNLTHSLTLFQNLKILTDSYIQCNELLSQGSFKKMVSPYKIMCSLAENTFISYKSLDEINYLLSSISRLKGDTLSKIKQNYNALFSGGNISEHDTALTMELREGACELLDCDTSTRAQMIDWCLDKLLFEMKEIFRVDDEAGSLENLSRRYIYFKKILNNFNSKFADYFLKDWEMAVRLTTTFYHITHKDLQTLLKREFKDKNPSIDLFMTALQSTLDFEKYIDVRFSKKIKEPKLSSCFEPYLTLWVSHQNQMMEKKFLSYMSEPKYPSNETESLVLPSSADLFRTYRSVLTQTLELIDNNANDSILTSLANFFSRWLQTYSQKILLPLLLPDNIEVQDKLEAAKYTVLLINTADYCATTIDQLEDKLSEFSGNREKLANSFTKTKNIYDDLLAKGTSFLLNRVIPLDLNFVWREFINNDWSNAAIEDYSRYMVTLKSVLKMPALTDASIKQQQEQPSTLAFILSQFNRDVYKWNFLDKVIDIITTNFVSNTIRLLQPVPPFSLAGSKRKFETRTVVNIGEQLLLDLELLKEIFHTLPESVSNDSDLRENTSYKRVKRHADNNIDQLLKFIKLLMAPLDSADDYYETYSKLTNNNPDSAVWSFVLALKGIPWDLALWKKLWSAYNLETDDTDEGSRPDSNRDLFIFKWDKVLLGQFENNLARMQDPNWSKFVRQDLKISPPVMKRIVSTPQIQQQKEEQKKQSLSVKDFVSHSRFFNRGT
Assay: two-hybrid

B1: ScVps35 (yeast two-hybrid fusion) (protein, UniProt P34110 1-944)
chain: MAYADSPENAIAVIKQRTALMNRCLSQHKLMESLQHTSIMLTELRNPNLSPKKYYELYVIIFDSLTNLSTYLIENHPQNHHLADLYELVQYTGNVVPRLYLMITVGTSYLTFNEAPKKEILKDMIEMCRGVQNPIRGLFLRYYLSQRTKELLPEDDPSFNSQFIMNNFIEMNKLWVRLQHQGPLRERETRTRERKELQILVGSQLVRLSQIIDDNFQMYKQDILPTILEQVIQCRDLVSQEYLLDVICQVFADEFHLKTLDTLLQTTLHLNPDVSINKIVLTLVDRLNDYVTRQLEDDPNATSTNAYLDMDVFGTFWDYLTVLNHERPDLSLQQFIPLVESVIVLSLKWYPNNFDNLNKLFELVLQKTKDYGQKNISLESEHLFLVLLSFQNSKLQLTSSTTAPPNSPVTSKKHFIFQLISQCQAYKNILALQSISLQKKVVNEIIDILMDREVEEMADNDSESKLHPPGHSAYLVIEDKLQVQRLLSICEPLIISRSGPPANVASSDTNVDEVFFNRHDEEESWILDPIQEKLAHLIHWIMNTTSRKQTMKNKIQFSLEAQLEILLLIKSSFIKGGINVKYTFPAIITNFWKLMRKCRMIQEYLLKKRPDNKTLLSHYSNLLKQMFKFVSRCINDIFNSCNNSCTDLILKLNLQCAILADQLQLNEISYDFFSQAFTIFEESLSDSKTQLQALIYIAQSLQKTRSLYKEAYYDSLIVRCTLHGSKLLKKQDQCRAVYLCSHLWWATEISNIGEEEGITDNFYRDGKRVLECLQRSLRVADSIMDNEQSCELMVEILNRCLYYFIHGDESETHISIKYINGLIELIKTNLKSLKLEDNSASMITNSISDLHITGENNVKASSNADDGSVITDKESNVAIGSDGTYIQLNTLNGSSTLIRGVVATASGSKLLHQLKYIPIHHFRRTCEYIESQREVDDRFKVIYV
- binding: binds
